The values below come from publication PMC11335345.

The target of this assay is T1, FBXO24-3×FLAG expressed in testes of transgenic mice under the Prm1 promoter (mouse) (UniProt Q9D417).
T1 sequence: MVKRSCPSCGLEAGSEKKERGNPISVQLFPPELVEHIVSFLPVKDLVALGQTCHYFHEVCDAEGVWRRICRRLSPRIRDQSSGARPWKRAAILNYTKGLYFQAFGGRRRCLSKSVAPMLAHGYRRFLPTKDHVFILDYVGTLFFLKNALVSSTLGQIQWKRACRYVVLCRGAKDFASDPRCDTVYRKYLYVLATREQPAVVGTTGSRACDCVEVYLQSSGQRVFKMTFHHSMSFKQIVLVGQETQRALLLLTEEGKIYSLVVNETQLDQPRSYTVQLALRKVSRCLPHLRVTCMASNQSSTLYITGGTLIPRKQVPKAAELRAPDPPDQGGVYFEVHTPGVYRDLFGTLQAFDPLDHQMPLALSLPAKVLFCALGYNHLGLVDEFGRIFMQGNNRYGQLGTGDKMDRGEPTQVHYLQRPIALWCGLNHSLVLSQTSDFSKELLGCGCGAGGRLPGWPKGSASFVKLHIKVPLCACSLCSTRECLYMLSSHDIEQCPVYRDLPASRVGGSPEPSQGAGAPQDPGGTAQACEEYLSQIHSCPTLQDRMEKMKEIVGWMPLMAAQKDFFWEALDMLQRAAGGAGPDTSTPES
Kind of assay: affinity purification with mass spectrometry; IP of FBXO24-FLAG from Fbxo24-FLAG Tg mouse testes with anti-FLAG antibody; elution with 3×FLAG peptide; MS.

These are yes or no findings as the source states them, for the method shown. In cells and extracts the contact can be indirect. Here binding means that the protein was enriched with, or labelled near, the bait; the list need not be complete. Sequences can lack the tags named with a protein.

B1: IPO5 (importin 5), endogenous in mouse testis (protein, UniProt Q8BKC5 1-1097)
chain: MAAAAAEQQQFYLLLGNLLSPDNVVRKQAEETYENIPGRSKITFLLQAIRNTTAAEEARQMAAVLLRRLLSSAFDEVYPALPSDVQTAIKSELLMIIQMETQSSMRKKICDIAAELARNLIDEDGNNQWPEGLKFLFDSVSSQNMGLREAALHIFWNFPGIFGNQQQHYLDVIKRMLVQCMQDQEHPSIRTLSARATAAFILANEHNVALFKHFADLLPGFLQAVNDSCYQNDDSVLKSLVEIADTVPKYLRPHLEATLQLSLKLCGDTNLNNMQRQLALEVIVTLSETAAAMLRKHTSLIAQTIPQMLAMMVDLEEDEDWANADELEDDDFDSNAVAGESALDRMACGLGGKLVLPMIKEHIMQMLQNPDWKYRHAGLMALSAIGEGCHQQMEGILNEIVNFVLLFLQDPHPRVRYAACNAVGQMATDFAPGFQKKFHEKVIAALLQTMEDQGNQRVQAHAAAALINFTEDCPKSLLIPYLDNLVKHLHSIMVLKLQELIQKGTKLVLEQVVTSIASVADTAEEKFVPYYDLFMPSLKHIVENAVQKELRLLRGKTIECISLIGLAVGKEKFMQDASDVMQLLLKTQTDFNDMEDDDPQISYMISAWARMCKILGKEFQQYLPVVMGPLMKTASIKPEVALLDTQDMENMSDDDGWEFVNLGDQQSFGIKTAGLEEKSTACQMLVCYAKELKEGFVEYTEQVVKLMVPLLKFYFHDGVRVAAAESMPLLLECARVRGPEYLTQMWHFMCDALIKAIGTEPDSDVLSEIMHSFAKCIEVMGDGCLNNEHFEELGGILKAKLEEHFKNQELRQVKRQDEDYDEQVEESLQDEDDNDVYILTKVSDILHSIFSSYKEKVLPWFEQLLPLIVNLICPQRPWPDRQWGLCIFDDIVEHCSPASFKYAEYFISPMLQYVCDNSPEVRQAAAYGLGVMAQFGGDNYRPFCTDALPLLVRVIQAPEAKTKENVNATENCISAVGKIMKFKPDCVNVEEVLPHWLSWLPLHEDKEEAVQTFSYLCDLIESNHPIVLGPNNTNLPKIFSIIAEGEMHEAIKHEDPCAKRLANVVRQVQTSGGLWTECIAQLSPEQQAAIQELLNSA
Consider B1, for which the binding result was “binds”.
